{"source": "patent US20150224089A1", "about": "“COMBINATIONS OF IKKi/TBK1 INHIBITORS WITH BETA ADRENERGIC AGONISTS OR SYMPATHETIC NERVOUS SYSTEM ACTIVATORS” (THE REGENTS OF THE UNIVERSITY OF MICHIGAN, priority 2014, published 2015)", "tested_on": "3T3-L1 adipocytes", "assay": "cAMP levels in 3T3-L1 adipocytes", "assay_type": "cell-based", "conditions": "10 μM Zardaverine; 10 μM ISO or 50 μM FSK; 15 min", "description": "(A) Glycerol release from 3T3-L1 adipocytes treated with or without different concentrations of TNFα as indicated for 24 hr followed by treatment with or without 10 μM ISO or 50 μM FSK. (B) cAMP levels from 3T3-L1 adipocytes treated with or without 100 ng/ml TNFα for 24 hr followed by treatment with or without 10 μM ISO or 50 μM FSK in the presence or absence of pretreatment of 50 μM Amlexanox (Am). (C) cAMP levels from 3T3-L1 adipocytes treated with or without 100 ng/ml TNFα for 24 hr followed by treatment with or without 50 μM FSK in the presence or absence of pretreatment of 1 μM CAY10576 (CAY). (D) Immunoblots of whole cell lysates from 3T3-L1 adipocytes treated with or without different concentrations of TNFα as same as FIG. 2A for 24 hr followed by treatment with or without 10 μM ISO or 50 μM FSK. Results were replicated in multiple experiments. ‘[’ indicates total HSL. ‘n.s.’ represents non-specific band. Arrow indicates CGI-58. (E) Immunoblots of whole cell lysates from 3T3-L1 adipocytes treated with or without 50 ng/ml TNFα or 100 μg/ml poly (I:C) for 24 hr followed by treatment with or without 10 μM ISO for 15 min in the presence or absence of pretreatment with increasing concentrations (0, 10, 50, and 200 μM) of amlexanox for 30 min. […]", "note": "For at least one compound, name, drawing or mass did not settle the structure."}
{"smiles": "COc1cc(-c2ccc(=O)[nH]n2)ccc1OC(F)F", "note": "[Zardaverine]", "values": [{"measurement": "cAMP levels in response to isoproterenol and forskolin in adipocytes overexpressing IKKε or TBK1", "value": "blocked the inhibitory effects of IKKε and TBK1 overexpression"}]}
